PubChem BioAssay AID1259254, NCATS | 2017
Shown is one part, drawn at random, of about 59,000 deposited reagents. About 1,550 of all reagents (2.6%) count as active. 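G2 share is only a proxy for re-replication; each gene was hit by three separate siRNAs, and active genes were retested.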 A number with no mark means an inactive call. Reagents against one gene are numbered here. Not all columns of the deposit are shown. No sequences are given here. Not given: the amount of reagent.

- Purpose: 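Gene knock-downs that lead to re-replication, shown by excess G2 DNA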 (primary screen)
- Cell system: human HCT116 colorectal cancer cells
- Knock-down reagent: single siRNA against human genes
- Duration: 3 days
- Read-out: 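Imaged Hoechst DNA stain sorts each cell into a cycle phase by DNA amount; per plate, G2 fraction set to 0% for non-targeting and 100% for GMNN siRNA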
- Reading the numbers: G2 robust z-score: higher = more G2 cells, more excess DNA replication
- Active means: 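Active siRNAs have a G2 robust z of 5 or more median absolute deviations over the median, which in these data means about 38% or higher of GMNN control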

PTPN11 #1
- G2 robust z-score: 6.36 (active)

PTPN11 #2
- G2 robust z-score: -0.977

PTPN11 #3
- G2 robust z-score: -0.742

TTC31 #1
- G2 robust z-score: -1.11

TTC31 #2
- G2 robust z-score: 2.79

TTC31 #3
- G2 robust z-score: -0.617

Sorted by “G2 robust z-score” (highest first): 2 of the entries above
PTPN11 #3
- G2 robust z-score: -0.742

TTC31 #1
- G2 robust z-score: -1.11

More entries follow.
CISD2 #1
- G2 robust z-score: 0.507

CISD2 #2
- G2 robust z-score: 2.96

CISD2 #3
- G2 robust z-score: -0.102

MUC12 #1
- G2 robust z-score: 2.91

MUC12 #2
- G2 robust z-score: -0.412

MUC12 #3
- G2 robust z-score: -0.439
